PubChem BioAssay AID652272 | Drosophila RNAi Screening Center | 2013
The screen tested about 21,000 reagents; below is an unselected part of those that have a named target and a result. Of all reagents, 503 (2.4%) got an active call. 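Raw plate light values, not normalised; calls rest on replicate z-scores that were not deposited; hits include reporter decreases as well as increases.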 Names joined by + are all predicted targets of the reagent. The record does not give: the amount of reagent, the time to read-out.

Purpose: 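Finding fly genes that regulate Hedgehog signal transduction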 (primary screen)
System: Drosophila clone 8 (Cl8) cells
Reagent: long dsRNA against Drosophila genes
Measured: 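Plate reader light from a firefly reporter under a ptc promoter fragment that responds to Hedgehog, with Renilla light as transfection reference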
Direction: firefly Hh reporter signal: higher = more ptc reporter light; Renilla reference signal: higher = more Renilla control light
Call rule: 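Called a hit if the two-replicate mean z-score lies below -2 or above +3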
Calls: active = hit: reporter lowered or raised; inactive = not a hit

no.	gene knocked down	amplicon	firefly Hh reporter signal, replicate 1	firefly Hh reporter signal, replicate 2	firefly Hh reporter signal, replicate 3	Renilla reference signal, replicate 1	Renilla reference signal, replicate 2	call
1	CG3038	DRSC18618	70912	1.28e5		2137	5398	inactive
2	Obp56a	DRSC06085	91349	58236		2224	4068	inactive
3	CG12126	DRSC06103	1.13e5	63324		3062	4461	inactive
4	mus81	DRSC18180	1.25e5	2.71e5		4797	9816	inactive
5	mus81	DRSC18644	1.17e5	3.17e5		4513	11459	inactive
6	Ser7	DRSC18201	90861	85097		2118	1864	inactive
7	TBC1d7 + mRpS24	DRSC14611	5.41e5	95843		27238	3032	inactive
8	sand	DRSC07245	59473	42898		1584	4209	inactive
9	rgr	DRSC06487	1.07e5	97113		5175	3847	inactive
10	rgr	DRSC07229	59403	45296		2886	1844	inactive
11	CG7218	DRSC16216	1.13e5	47542		5085	2252	inactive
12	CG17806	DRSC15276	1.54e5	77232		6856	3168	inactive
13	CG7084	DRSC16194	1.55e5	96436		6400	4240	inactive
14	CG13739	DRSC06410	78266	26408		1856	2043	inactive
15	CtsL2	DRSC06978	82676	63180		3963	2537	inactive
16	CG34228	DRSC05300	1.25e5	2.59e5		3235	10065	inactive
17	S-Lap7	DRSC06374	72497	65080		1975	5123	inactive
18	Tet	DRSC08006	1.61e5	3.65e5		4141	12336	inactive
19	Tet	DRSC08550	2.03e5	96468		6435	2201	inactive
20	Tet	DRSC08646	77645	33066		2000	2250	inactive
21	tadr	DRSC03177	62160	69827		2472	2890	inactive
22	CG5568	DRSC10518	1.45e5	7.48e5	1.20e5	6632	44322	inactive
23	RhoGEF2	DRSC07531	1.20e5	98090		4744	3616	inactive
24	CG4267	DRSC00102	4.33e5	1.86e5		24544	7961	inactive
25	CG4267	DRSC00647	69555	81680		1756	1652	inactive
26	Arp5	DRSC16350	1.38e5	71099		4512	2336	inactive
27	ND4 (retired record)	DRSC21269	2.18e5	4.03e5		7251	18627	inactive
28	CG11882	DRSC14425	84309	1.15e5		2090	2683	inactive
29	GlyRS	DRSC10711	77824	67994		3008	3117	inactive
30	MED18	DRSC18549	91202	2.23e5		2652	8785	inactive
31	GNBP-like3	DRSC06385	1.05e5	42480		2626	2278	inactive
32	Pdfr	DRSC18614	82000	2.03e5		2803	8349	inactive
33	CG10616	DRSC09750	95810	42084		4059	1728	inactive
34	Set1	DRSC20930	1.05e5	1.54e5		3255	5813	inactive
35	Set1	DRSC20931	1.00e5	1.67e5		2853	6308	inactive
36	Cand1	DRSC01992	66690	48823		2613	2027	inactive
37	CG12655	DRSC20678	82569	2.77e5		2225	10459	inactive
38	ste24c + CR30461 (retired record)	DRSC05639	98480	2.25e5		2841	9321	inactive
39	ste24c + CR30461 (retired record)	DRSC07316	87936	58658		2214	3965	inactive
40	Prp8	DRSC07293	26272	25633		2178	1997	active
41	CG8750	DRSC11037	48464	50036	67377	3570	3653	inactive
42	VGAT	DRSC07160	1.11e5	48183		2793	1351	inactive
43	Dnali1	DRSC16158	1.53e5	87916		6217	4002	inactive
44	CARPA	DRSC17905	1.20e5	3.12e5		3635	13274	inactive
45	RpS21	DRSC00833	3.31e5	39768		3296	3296	active
46	Cyp304a1	DRSC16623	1.02e5	98800		2347	2123	inactive
47	Ktch	DRSC15094	93552	1.33e5		3305	3729	inactive
48	CG9919	DRSC20219	85260	2.63e5		2711	10240	inactive
49	CG18809	DRSC19818	74803	1.91e5		1922	7552	inactive
50	CG10175	DRSC13628	38786	1.82e5		10896	3958	inactive
51	CG10175	DRSC14200	8.28e5	1.61e5		44432	4322	inactive
52	CG42399	DRSC00322	1.30e5	99915		2922	2757	inactive
53	CG42399	DRSC00661	1.29e5	96919		2861	2701	inactive
54	CG5122	DRSC02816	1.29e5	56279		3242	5270	inactive
55	Mocs1	DRSC11225	49590	55400	52633	4394	3313	inactive
56	pyd	DRSC12712	6.88e5	4.09e5	1.26e5	5857	8872	inactive
57	pyd	DRSC14387	1.63e5	1.07e5		5595	3691	inactive
58	pyd	DRSC14445	75751	1.14e5		2912	3264	inactive
59	pyd	DRSC14509	1.19e5	1.74e5		4873	4829	inactive
60	pyd	DRSC16547	1.39e5	94150		5340	3608	inactive
61	pyd	DRSC16548	85845	1.43e5		3101	3921	inactive
62	pyd	DRSC17041	1.07e5	1.91e5		4304	5188	inactive

Called active (from the list above):
gene knocked down	amplicon	firefly Hh reporter signal, replicate 1	firefly Hh reporter signal, replicate 2	firefly Hh reporter signal, replicate 3	Renilla reference signal, replicate 1	Renilla reference signal, replicate 2	call
Prp8	DRSC07293	26272	25633		2178	1997	active
RpS21	DRSC00833	3.31e5	39768		3296	3296	active
